Some of the results follow. Further columns of the screen follow, without active or inactive calls. Most of these compounds were active or inconclusive in the main read-out, so they are no random draw. Words in brackets tell the shape of the fitted curve; partial curves, single points and poor fits give uncertain potencies.
Test: IkB Signaling
Conditions: ABC-DLBCL IkBa-CBG/CBR dual luciferase ratio (green luciferase fused to IkBa over red control in OCI-Ly3 lymphoma cells), 4 h
Method in brief: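 In this assay, an IκBα–CBG68 fusion accumulates when IKK-driven degradation is blocked; native CBR normalizes for cell number. OCI-Ly3 cells were treated 4 h with compound and doxycycline, then green and red light read after Chroma-Glo addition.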

[1] = measured here: control luc red channel unless noted

**Q.** Which AC50 [1] does the source give for `O=S(=O)(NCCc1csc2nc(-c3ccccc3)nn12)c1ccc(Oc2ccccc2)cc1` here?
**A.** 15.8 µM [falling, partial curve]

**Q.** For `Cc1ccc(Cl)cc1N1CCN(C(=O)c2noc3c2CCCC3)CC1`, which AC50 [1] is on record?
**A.** 15.8 µM [falling, partial curve]

**Q.** With `COc1ccc(Cl)cc1NC(=O)Cn1nnc2sc(-c3ccccc3)cc2c1=O` as the compound, how does the AC50 [1] read?
**A.** 10 µM [falling, partial curve]

**Q.** With `COC(=O)Cc1ccc(NC(=O)c2cccs2)cc1` as the compound, how does the AC50 [1] read?
**A.** 20 µM [falling, partial curve]

**Q.** For `O=C1CN(C(=O)Cc2ccccc2)C(c2ccc(F)cc2)c2cc(Br)ccc2N1` (stereo not given), which AC50 [1] is on record?
**A.** 31.6 µM [falling, partial curve]

**Q.** With `Cc1cc(S(=O)(=O)Nc2ccc3oc4c(c3c2)CCCC4)ccc1Cl` as the compound, how does the AC50 [1] read?
**A.** 20 µM [falling, partial curve]

**Q.** With `CCOc1ccc(CCNCc2c(C(=O)O)c(C)n(Cc3ccccc3F)c2C)cc1` as the compound, how does the AC50 [1] read?
**A.** 12.6 µM [falling, partial curve]

**Q.** With `CC1CCN(C(=O)CN2C(=O)C(C)(C)Oc3ccc(C(=O)NC4CCCC4)cc32)CC1` as the compound, how does the AC50 [1] read?
**A.** 3.16 µM [rising, partial curve] [measured here: IkB-luc green channel]

**Q.** For `CC1CCN(S(=O)(=O)c2ccc3c(c2)N(CC(=O)NCCCN2CCCC(C)C2)C(=O)CS3)CC1` (stereo not given), which AC50 [1] is on record?
**A.** 15.8 µM [falling, partial curve]

**Q.** Which AC50 [1] does the source give for `O=C(/C=C\Nc1ccccn1)c1ccccc1` here?
**A.** 2 µM [falling, full curve]

**Q.** Which AC50 [1] does the source give for `CN1C(=O)C2(OCC(COc3ccc(Cl)cc3)O2)c2ccccc21` (stereo not given) here?
**A.** 0.794 µM [falling, full curve]

**Q.** With `Cc1cccc(NC(=O)c2oc3ccc(S(=O)(=O)N4CCC5(CC4)OCCO5)cc3c2C)c1C` as the compound, how does the AC50 [1] read?
**A.** 31.6 µM [falling, single point]

**Q.** Which AC50 [1] does the source give for `CN(C)CCNC(=O)c1ccc(Cn2c(=O)c3cccn3c3cccnc32)cc1` here?
**A.** 1.26 µM [rising, full curve, poor fit]

**Q.** With `N/C(=N/O)c1nc(N2CCCC2)nc(N(c2ccccc2)c2ccccc2)n1` as the compound, how does the AC50 [1] read?
**A.** 25.1 µM [falling, single point]

**Q.** With `CCOC(=O)C1CCN(S(=O)(=O)c2cn(C)c(=O)n(C)c2=O)CC1` as the compound, how does the AC50 [1] read?
**A.** 7.94 µM [falling, full curve, poor fit]

**Q.** For `COc1ccc(-n2c(=O)c3c4c(sc3n3c(SC(C)C)nnc23)COC(C(C)C)C4)cc1` (stereo not given), which AC50 [1] is on record?
**A.** 10 µM [falling, partial curve]

**Q.** With `CCCc1cc(=O)[nH]c(SCc2nc(-c3ccccc3F)no2)n1` as the compound, how does the AC50 [1] read?
**A.** 2.51 µM [rising, partial curve]

**Q.** With `CC(=O)c1cccc(Nc2ccc3cc(S(=O)(=O)N4CCCC4)ccc3n2)c1` as the compound, how does the AC50 [1] read?
**A.** 6.31 µM [rising, full curve]

**Q.** With `CCCNC(=O)c1c(N)n(-c2cc(OC)cc(OC)c2)c2nc3ccccc3nc12` as the compound, how does the AC50 [1] read?
**A.** 10 µM [falling, partial curve]

**Q.** For `COc1ccccc1-c1cc(C(F)(F)F)nc(S(=O)(=O)CCCC(=O)Nc2ccc(F)cc2F)n1`, which AC50 [1] is on record?
**A.** 5.01 µM [falling, partial curve]

**Q.** Which AC50 [1] does the source give for `O=C(Cn1c(=O)n(Cc2nc(-c3ccccc3)no2)c(=O)c2cc3c(cc21)OCO3)Nc1cccc(C(F)(F)F)c1` here?
**A.** 12.6 µM [falling, partial curve]

**Q.** Which AC50 [1] does the source give for `COc1cccc(C2CC(=O)Nc3c2c(=O)n(C)c2nc4ccccc4n32)c1` (stereo not given) here?
**A.** 1.26 µM [rising, full curve, poor fit]

**Q.** With `Cc1cccc(C(=O)Nc2nc(-c3nnn(-c4cc(C)ccc4C)c3C)ns2)c1` as the compound, how does the AC50 [1] read?
**A.** 7.94 µM [falling, partial curve]

**Q.** With `COc1cc2c(cc1C(F)(F)F)N(C(=O)Nc1cc(F)cc(-c3cccnc3)c1)CC2` as the compound, how does the AC50 [1] read?
**A.** 3.16 µM [falling, full curve]

**Q.** With `COC(=O)c1ccccc1NC(=O)C1CCCN(S(=O)(=O)c2ccc(F)cc2)C1` (stereo not given) as the compound, how does the AC50 [1] read?
**A.** 10 µM [falling, partial curve]

**Q.** For `Cc1cccc(CNC(=O)Cn2ccc3cc(S(=O)(=O)N4CCC(C)CC4)ccc32)c1`, which AC50 [1] is on record?
**A.** 6.31 µM [falling, full curve]

**Q.** Which AC50 [1] does the source give for `Cc1ccc(-c2nc3c4ccccc4n(CC(=O)N4CCN(c5ccc(F)cc5)CC4)c(=O)n3n2)cc1` here?
**A.** 5.01 µM [rising, partial curve]

**Q.** Which AC50 [1] does the source give for `Cc1cc(C)cc(Nc2cc(C)nc3nc(-c4ccco4)nn23)c1` here?
**A.** 31.6 µM [falling, partial curve]

**Q.** For `Cc1cc2ncn(CCOc3ccccc3C#N)c2cc1C`, which AC50 [1] is on record?
**A.** 25.1 µM [falling, partial curve]

**Q.** What does the source list for `O=C(CSc1n[nH]c(-c2ccccc2O)n1)N1CCCc2ccccc21`?
**A.** AC50 (measured here: IkB-luc green channel): 7.94 µM [falling, partial curve, poor fit]; AC50 (measured here: control luc red channel): 20 µM [falling, partial curve]

**Q.** With `Cc1cc(N2CCC(C(=O)NCCC(C)C)CC2)n2nc(C)c(-c3ccc(Cl)cc3)c2n1` as the compound, how does the AC50 [1] read?
**A.** 2.51 µM [falling, partial curve]

**Q.** With `Cc1ccc(CN(C(=O)c2ccccc2[N+](=O)[O-])c2ccccn2)cc1` as the compound, how does the AC50 [1] read?
**A.** 20 µM [falling, single point]

**Q.** With `COc1ccccc1NC(=O)CSc1oc(-c2ccc(F)cc2)nc1S(=O)(=O)c1ccc(Br)cc1` as the compound, how does the AC50 [1] read?
**A.** 12.6 µM [falling, partial curve]

**Q.** Which AC50 [1] does the source give for `CCOC(=O)C1Cn2c(nc3c(c2=O)C2(CCCC2)Cc2ccccc2-3)S1` (stereo not given) here?
**A.** 12.6 µM [falling, partial curve]

**Q.** Which AC50 [1] does the source give for `CSc1cccc(NC(=O)CN2C(=O)COc3ccc(S(=O)(=O)N4CCC(C)CC4)cc32)c1` here?
**A.** 15.8 µM [falling, partial curve]

**Q.** Which AC50 [1] does the source give for `O=C(CN1C(=O)CC(c2ccco2)Sc2ccccc21)Nc1ccccc1F` (stereo not given) here?
**A.** 12.6 µM [falling, partial curve]

**Q.** With `Cc1ccccc1CNC(=O)c1ccc2[nH]c(C)c(C)c2c1` as the compound, how does the AC50 [1] read?
**A.** 20 µM [falling, single point]

**Q.** Which AC50 [1] does the source give for `Nc1nc2ccc(Cl)cc2c2nc(-c3ccco3)nn12` here?
**A.** 1.58 µM [rising, full curve]

**Q.** Which AC50 [1] does the source give for `Cn1nnnc1SCCCNCc1cc(Cl)ccc1OCc1ccccc1F` here?
**A.** 39.8 µM [falling, single point]
